Results from doi:10.1101/2021.02.26.433017.
No constants are given. Whether binding was seen depends on the method and setting. In cells and extracts the contact can be indirect. Some entries that bind do so weakly or less than the wild type. Where a sequence is shown, tags or fusion partners need not be part of it.

Target: T1, LIKE HETEROCHROMATIN PROTEIN 1 (LHP1) fused to NYFP (Arabidopsis thaliana) (UniProt Q946J8)
T1 sequence: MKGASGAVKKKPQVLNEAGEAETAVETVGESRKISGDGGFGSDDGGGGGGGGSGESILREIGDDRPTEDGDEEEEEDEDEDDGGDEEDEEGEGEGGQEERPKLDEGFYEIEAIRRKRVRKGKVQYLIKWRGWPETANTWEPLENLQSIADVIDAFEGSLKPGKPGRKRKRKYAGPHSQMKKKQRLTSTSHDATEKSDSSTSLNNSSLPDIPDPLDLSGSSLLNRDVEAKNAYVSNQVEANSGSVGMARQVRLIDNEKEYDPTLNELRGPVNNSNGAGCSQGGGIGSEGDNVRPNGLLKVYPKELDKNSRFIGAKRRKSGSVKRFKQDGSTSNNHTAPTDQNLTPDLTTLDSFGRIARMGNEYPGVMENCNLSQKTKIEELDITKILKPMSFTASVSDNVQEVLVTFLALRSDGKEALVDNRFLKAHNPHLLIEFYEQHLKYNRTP
Assay: split reporter

binding: binds
B1: VARIANT IN …ON 1 (VIM1) fused to CYFP (protein, UniProt Q8VYZ0 1-645)
chain: MARDIQLPCDGDGVCMRCKSNPPPEESLTCGTCVTPWHVSCLSSPPKTLASTLQWHCPDCSGEIDPLPVSGGATGFESAGSDLVAAIRAIEADESLSTEEKAKMRQRLLSGKGVEEDDEEEKRKKKGKGKNPNLDVLSALGDNLMCSFCMQLPERPVTKPCGHNACLKCFEKWMGQGKRTCGKCRSIIPEKMAKNPRINSSLVAAIRLAKVSKSAAATTSKVFHFISNQDRPDKAFTTERAKKTGKANAASGKIYVTIPPDHFGPIPAENDPVRNQGLLVGESWEDRLECRQWGAHFPHVAGIAGQSTYGAQSVALSGGYKDDEDHGEWFLYTGSGGRDLSGNKRTNKEQSFDQKFEKSNAALKLSCKLGYPVRVVRSHKEKRSAYAPEEGVRYDGVYRIEKCWRKVGVQGSFKVCRYLFVRCDNEPAPWTSDENGDRPRPIPNIPELNMATDLFERKETPSWDFDEGEGCWKWMKPPPASKKSVNVLAPEERKNLRKAIKAAHSNTMRARLLKEFKCQICQQVLTLPVTTPCAHNFCKACLEAKFAGKTLVRERSTGGRTLRSRKNVLNCPCCPTDISDFLQNPQVNREVAEVIEKLKTQEEDTAELEDEDEGECSGTTPEEDSEQPKKRIKLDTDATVSATIR
